Here are results for 19 molecules from paper PMC10163288.

The chains are these.
B1: il10ra_site1_normal_mot_HHH_b2_08186_000000021_0001_43_56_H_._HHH_b2_01076_0001_0000500056_0000002_0 (protein)
chain: SSSSSSSSEVEEEVQRLLEEARENPEHAQELLAEALRLAFQHSNEELLQEIWRVLRELSSSSSSS
B2: il10ra_site1_sap_20_mot_HHH_b2_03425_000000200_0001_22_39_H_._HHH_b1_07284_af2_0001_0000400022_0000001_0_0001 (protein)
chain: SSSSDETERVMELLEEVTELDQKGNPEEAREVLREALELAEELGNWALRAAAEHLERVINSSSSS
B3: il10ra_site1_sap_19_mot_HHH_b1_02397_af2_000000085_0001_39_57_H_._HHH_b1_07123_0001_0000100001_0000002_0_0001 (protein)
chain: SSSSDVEEYVKLSERFAKWLEEVGNPEAAKRILEAAASAAENAGNPELLEELERLLEELRSSSSS
B4: il10ra_site1_normal_mot_HHH_b2_00033_000000036_0001_41_54_H_._HHH_b1_07736_0001_0000100005_0000001_0 (protein)
chain: SSSSSDEQQELFQLVWEAAKRRDEELLRELEERIRELYEETGDPALRALLRLIRLFLESLSSSSS
B5: il10ra_site1_normal_mot_HHH_b1_06789_af2_000000041_0001_1_20_H_._HHH_b1_07940_0001_0000100010_0000001_0_af2pred_0001 (protein)
chain: SSSSDVIRFVVEAALKTAKLAAERGDDEAVRRALEIAERTAEDANDPELLREVEEVKEELSSSSS
B6: il10ra_site1_normal_mot_1f0bf248c09923a0581b66a675a8b92c_0001_af2_000000190_0001_52_65_H_._HHH_b2_01395_af2_0001_0000700029_0000001_0_af2pred_0001 (protein)
chain: SSSSDEEEEKVRELIEEAIQLLLEGNPEEARKVLEEAIELAERLGDPELARRVRLLLRSVSSSSS
B7: il10ra_site1_sap_23_mot_ems_3hM_3349_af2_000000150_0001_25_42_H_._8eb524b276bbb897fd8f0cca34c37a2d_0001_af2_0001_0000300019_0000001_1_0001 (protein)
chain: SSSSDEEIREEVEELLERAEEIEDLREANEVLLRALRLAIQAQDPELLQLVWRVVHEVARSSSSS
B8: il10ra_site1_normal_mot_HHH_b2_05813_000000266_0001_1_19_H_._HHH_b1_01854_0001_0000400040_0000002_0_af2pred_0001 (protein)
chain: SSSSSEEERELLRLAVRIKRLLEEGDKEEVEKLAEELLELAKELGDPHAEFLARLILEELSSSSS
B9: il10ra_site1_normal_mot_HHH_b1_05326_000000242_0001_1_20_H_._HHH_b1_05311_0001_0000100004_0000001_0 (protein)
chain: SSSSSSDEALELSRRAFKAALHGNPEEARELLEEALELAEERGDERLARIIQDLLKVLSSSSSSS
B10: il10ra_site1_sap_23_mot_HHH_b2_06602_000000226_0001_1_16_H_._HHH_b1_06962_0001_0000200019_0000002_0_0001_af2pred_0001 (protein)
chain: SSSSSIHEKIIRLLFEALELYANGNPEEAERLIEEAEELAEELGDPELQEAIKQVRRFVESSSSS
B11: il10ra_site1_sap_35_mot_HHH_b1_01513_af2_000000021_0001_1_16_H_._HHH_b2_03408_af2_0001_0000300008_0000001_0_0001 (protein)
chain: SSSSSDEEYEEEVERLLEEAEKIEDPREVAELLLKAVHLAWRAQDPELLRLVWRVVKELASSSSS
B12: il10ra_site1_sap_23_mot_HHH_b2_06857_af2_000000179_0001_42_54_H_._HHH_b1_05051_af2_0001_0000600017_0000002_0_0001 (protein)
chain: SSSSNEDNEEVMELLREVTELDQEGNPEEARKVLEEAKELAEEIGNEVLRWAIEYLEKLLSSSSS
B13: il10ra_site1_sap_21_mot_HHH_b1_07256_000000044_0001_1_17_H_._HHH_b1_03517_0001_0000300021_0000001_0_0001_af2pred_0001 (protein)
chain: SSSSDELERIFRLIRRVAELHHDGNPEEAQELLEEAKELAEEAGNEVFKFIVEFLERLLESSSSS
B14: il10ra_site1_sap_19_mot_HHH_b2_05984_000000071_0001_38_52_H_._919c246ba0fc10ef4578bdc7f1052ff8_0001_0001_0000100004_0000001_0_0001 (protein)
chain: NELEEELEELVERGDEEKVAELAVKVAKEKGSFSPEQLEALRRFIEALFRDNKKVAEHLARLVID
B15: il10ra_site1_sap_26_mot_HHH_b1_05329_000000008_0001_43_56_H_._HHH_b1_07099_af2_0001_0000500019_0000001_0_0001 (protein)
chain: SSSSDNREVYELSREVMELLRNGDPEEAEKLVEEALELAREIGNWALIKALEHVLKDIEDSSSSS
B16: il10ra_site1_normal_mot_8756ee2cf497b5429c717dfc0c0bcfd6_0001_000000186_0001_1_13_H_._HHH_b1_01841_0001_0000600019_0000002_0_af2pred_0001 (protein)
chain: SSSSSEEVERLVEIAKKLAEASDRKNDERLREELQELLEEVEEAGNAVLLVIVEFLLKHTSSSSS
B17: il10ra_site1_sap_31_mot_HHH_b1_02809_af2_000000277_0001_40_57_H_._HHH_b1_05617_af2_0001_0000300017_0000002_0_0001 (protein)
chain: SSSSDEELLELTRLIFRLMLRGDIEEARRVLEEAEELAEELGNERVLKMLKDLRESLEKRSSSSS
B18: il10ra_site1_normal_mot_HHH_b1_02997_000000220_0001_39_52_H_._HHH_b1_07797_0001_0000200027_0000001_0_af2pred_0001 (protein)
chain: SSSSSEEHRELLRLSRRALELYREGDREEARELLEEAIELAQEAGNPVFLVVLEFLLEQINSSSS
B19: il10ra_site1_normal_mot_HHH_b2_00076_000000055_0001_40_55_H_._HHH_b2_07214_af2_0001_0000700018_0000001_0 (protein)
chain: SSSSNDVSRLTAEIVRLAIRANDPEVLQEAYELFKKYIEEGDERYEEELEELLEELRKKLESSSS

Some of the results follow.

The target of the assay is il10ra, Q13651. Description: yeast display titration.
The term apparent Kd denotes the concentration giving half-maximal binding under the conditions of the assay. As to B1, the “apparent Kd” value is “inactive: no binding seen”.
B2: the “apparent Kd” value was “inactive: no binding seen”.
With B3, the “apparent Kd” value was “inactive: no binding seen”.
Take B4: the “apparent Kd” value was “inactive: no binding seen”.
Regarding B5, the “apparent Kd” value was “inactive: no binding seen”.
B6: the “apparent Kd” value was “inactive: no binding seen”.
For B7, the “apparent Kd” value is “inactive: no binding seen”.
The value for B8 was “inactive: no binding seen”; that for B9 was “inactive: no binding seen”.
The value for B10 was “inactive: no binding seen”; that for B11 was “inactive: no binding seen”; that for B12 was “inactive: no binding seen”.
B13: the apparent Kd was inactive: > 2.02 µM.
As for B14, the “apparent Kd” value is “inactive: no binding seen”.
As to B15, the “apparent Kd” value was “inactive: no binding seen”.
For the molecule B16, the “apparent Kd” value is “inactive: no binding seen”.
As for B17, the “apparent Kd” value is “inactive: no binding seen”.
As to B18, the “apparent Kd” value was “inactive: no binding seen”.
With B19 the entry was “inactive: no binding seen”.
